These results are taken from PubChem BioAssay AID2685 (National Center for Advancing Translational Sciences (NCATS), 2010).

The nature of this assay: qHTS Assay for Lipid Storage Modulators in Drosophila S3 Cells.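 On cell number change: cells counted by Cell Tracker Red CMTPX staining in the red channel.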 As to conditions: BODIPY lipid droplet fluorescence, 18-24 h; for cell number change: measured here: cell count max response, cells fed with added oleic acid. A digest of the protocol: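 Drosophila S3 cells loaded with oleic acid (400 uM, as added) and compounds at several concentrations; lipid droplets imaged by 488-nm laser-scanning cytometry, 500–530 nm intensity and object ratio to cell channel. Percent activity normalized to 20 uM Triacsin C.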
In general terms: In qHTS, concentration-response curves come from the screen itself.

The mark [1] stands for this setting: measured here: lipid fluorescence (Fed channel) AC50, cells fed with added oleic acid.
[2] abbreviates: measured here: cell number channel AC50, cells fed with added oleic acid.

This is one part of the list. Shown are side measurements of this screen, not its main read-out; they come without a call. Most of these compounds were active or inconclusive in the main read-out, so they are no random draw. The note in brackets gives the kind of curve behind each potency; many fits are weak.

`CCOC(=O)C1(CCCc2ccccc2)CCN(Cc2cnn(C)c2)CC1`: the cell number change is 15.4%. In addition, the AC50 (as a rule, the concentration at which the activity in the assay is half-maximal) under setting [1] is 0.13 µM [rising, full curve, poor fit].

As for `O=C1CCC(=O)N1c1nc2nc(-c3ccccc3)cc(=O)n2[nH]1`, the cell number change was -2.7%. Further, the AC50 under setting [1] is 14.6 µM [falling, partial curve].

Turning to `CCN1CCS/C1=C\C=C\C1=[N+](CC)CCS1`, the cell number change was -69.9%.

For the compound `COc1ccc(OC)c2sc(N3CCc4ccccc4C3)nc12`, the cell number change turned out to be 29.2%.

As for `NC(=O)CN1CCOCCOCCN(CC(N)=O)CCOCC1`, the cell number change stood at 9.08%.

`COc1cccc(-c2noc(C3CCCN(C(=O)CC(C)(C)C)C3)n2)c1` (stereo not given): the cell number change is -8.08%. Moreover, under setting [1], the AC50 was 0.0731 µM [falling, full curve, poor fit].

Take `COc1ccc(-n2c(SCC(=O)Nc3ccccc3OC)nc(O)c(Cc3ccccc3)c2=O)cc1`: the cell number change was determined as 17.9%. For the same compound, the concentration at half-maximal activity (AC50) under setting [1] is 29.1 µM [falling, single point].

In the case of `CCOc1ccc(NC(=O)Cn2nc(-c3ccccc3Cl)n(CC)c2=S)cc1`, the cell number change is -9.73%.

For the compound `Cc1nc(-c2ccc(NS(C)(=O)=O)cc2)cs1`, the cell number change amounted to 35.5%. Further, under setting [2], the AC50 was 29.1 µM [rising, single point].

As to `Cc1cc(NC(=O)CSc2cn(CCNC(=O)c3ccc(Cl)cc3)c3ccccc23)no1`, the AC50 reads like this: under setting [2], 1.3 µM [rising, full curve, poor fit]; under setting [1], 1.46 µM [rising, full curve].

In the case of `CN(CC(=O)Nc1ccc(F)c(F)c1F)C(=O)C1CCC1`, the cell number change is -8%.

Consider `CC(C)CCN1C(=O)CCC1(C)C(=O)NC1CCCCCC1` (stereo not given), for which the cell number change was -12.7%. Under setting [1], the concentration at half-maximal activity (AC50) is 16.4 µM [falling, single point].

For the compound `CC(=O)c1cc2c(cc1NC(=O)Nc1cccc(Cl)c1)OCCO2`, the AC50 reads like this: under setting [2], 3.26 µM [rising, partial curve]; under setting [1], 6.51 µM [rising, single point].

Take `CC(=O)NC1C(Oc2ccc3c(C)cc(=O)oc3c2)OC(COC(C)=O)C(OC(C)=O)C1OC(C)=O` (stereo not given): the cell number change is -30.8%. Under setting [2], the AC50 was 23.1 µM [falling, single point].

With `O=C(c1ccco1)c1cn(CC(=O)N2CCCc3ccccc32)c2ccccc12`, the AC50 under setting [1] was 6.51 µM [rising, single point].

On to `CCOC(=O)C1=C(C)OC(N)=C(C#N)C1c1c(C)nn(-c2ccc(C)cc2)c1Cl` (stereo not given), for which the cell number change was 14.9%. The concentration at half-maximal activity (AC50) under setting [1] was 6.51 µM [rising, full curve].

As to `CCN(CC)CCOc1ccc(/C(=C(\Cl)c2ccccc2)c2ccccc2)cc1`, the cell number change was -5.2%.

As to `COC(CN(C)C(=O)C1CCCN(S(=O)(=O)c2ccc3c(c2)oc(=O)n3C)C1)OC` (stereo not given), the cell number change came to 8.96%.

In the case of `Cc1ccc(NC(=O)C2=CC=CN3CCS(=O)(=O)N=C23)cc1`, the cell number change amounted to 7.19%. Under setting [1], the concentration at half-maximal activity (AC50) is 2.59 µM [falling, single point].

`OCCN(CCO)CC(O)COc1ccc2c(c1)OCO2` (stereo not given): the cell number change was -13.8%.

Turning to `O=C(C1CCCN(S(=O)(=O)c2cc(Cl)ccc2Cl)C1)N1CCOCC1` (stereo not given), the cell number change is -13.9%. Moreover, the AC50 under setting [1] is 29.1 µM [falling, single point].

Regarding `CCN(CC(=O)NCCc1ccccc1)S(=O)(=O)c1ccc(C)cc1`, the cell number change was determined as 20.7%. The AC50 under setting [1] is 8.2 µM [rising, partial curve].

`Cc1ccc(-c2nnn(CC(=O)N(CCO)C(C(=O)NC(C)(C)C)c3ccncc3)n2)cc1` (stereo not given): the cell number change amounted to 2.46%. The AC50 under setting [1] was 4.11 µM [falling, single point].

As to `CCCCn1c(N)c(N(CCC(C)C)C(=O)c2cc(S(=O)(=O)N3CCOCC3)ccc2F)c(=O)[nH]c1=O`, the cell number change was -2.77%.

On to `O=[N+]([O-])c1ccc2c(c1)CNc1ccccc1O2`, for which the cell number change is -34.8%. For the same compound, the AC50 under setting [2] was 25.9 µM [falling, single point]. Moreover, the AC50 under setting [1] is 23.1 µM [falling, single point].

With `COc1cccc(-c2nn(-c3ccc(C)cc3)cc2C(=O)NCC(c2cccs2)N2CCOCC2)c1` (stereo not given), the cell number change was 25.6%. Further, the AC50 under setting [2] is 1.64 µM [rising, full curve, poor fit]. The AC50 under setting [1] is 1.03 µM [rising, partial curve].

For `N#C/C(=C\c1cccnc1)C(=O)Nc1ccc(Cl)cc1`, the cell number change was 9.27%. The AC50 under setting [1] is 29.1 µM [falling, single point].

On to `NC(=O)c1ccc(NC(=O)COc2ccc([N+](=O)[O-])cc2Cl)cc1`, for which the cell number change was 80.9%.

With `CCC(C(=O)Nc1ccc(OC)c(Cl)c1)c1ccccc1` (stereo not given), the cell number change was -51.4%. Under setting [2], the AC50 was 20.6 µM [falling, single point].

With `CSCC[C@H](NC(=O)NCc1ccccc1F)C(=O)O`, the cell number change is -32.5%. The AC50 under setting [2] was 0.461 µM [falling, full curve, poor fit]. Also, the AC50 under setting [1] was 25.9 µM [falling, partial curve].

Regarding `O=C(CSc1nnc(CNC(=O)c2cccs2)o1)c1ccc(Cl)cc1`, the cell number change stood at 45%. For the same compound, under setting [2], the AC50 was 29.1 µM [rising, single point]. Further, under setting [1], the half-maximal activity concentration (AC50) is 6.51 µM [falling, single point].

On to `Cc1ccc(NC(=O)c2c(-c3ccccc3)noc2C)nc1`, for which the cell number change is -59.1%. Also, under setting [2], the AC50 was 18.4 µM [falling, partial curve, poor fit]. Moreover, the AC50 under setting [1] is 1.64 µM [rising, partial curve, poor fit].

For the compound `CCNC(=O)Nc1ccc(S(=O)(=O)Nc2cnc(C)nc2C)cc1`, the cell number change is 26.9%.

As to `CC(C)NC(=O)Cn1c(SCC(=O)N2CCc3ccccc3C2)nc2ccccc21`, the cell number change worked out at 3.61%. The AC50 under setting [2] is 1.3 µM [rising, partial curve, poor fit]. Further, the AC50 under setting [1] was 2.31 µM [rising, full curve].

Turning to `COc1ccc(C)cc1NC(=O)C1CC(=O)OC12CCCCC2` (stereo not given), the cell number change is 33.9%. Under setting [2], the AC50 was 16.4 µM [rising, partial curve, poor fit]. Also, under setting [1], the AC50 is 0.184 µM [falling, full curve, poor fit].

In the case of `COc1ccc(/C=C(/NC(=O)c2cccs2)C(=O)NCc2ccco2)cc1OC`, the cell number change was -49%. Besides, the AC50 under setting [2] was 0.58 µM [falling, full curve]. Further, the AC50 under setting [1] was 0.517 µM [falling, full curve, poor fit].

In the case of `CCOC(=O)c1cccc(NC(=O)CSc2nnc(-c3ccncc3)n2CCCOC)c1`, the cell number change is -6.31%. Besides, the AC50 under setting [1] was 2.06 µM [rising, partial curve].

For `CC(=O)Nc1cccc(NC(=O)C2CCN(C(=O)c3ccco3)CC2)c1`, the cell number change was determined as 11.8%. Further, the AC50 under setting [1] was 0.13 µM [falling, partial curve, poor fit].

On to `CCOC(=O)C1=C(c2ccccc2)NC(SCC(=O)Nc2ccc(C)cc2)=C(C#N)C1c1ccco1` (stereo not given), for which the cell number change came out at 59.2%. Also, under setting [2], the AC50 was 32.6 µM [rising, single point]. Also, the AC50 under setting [1] is 32.6 µM [rising, single point].
